Test results published in paper doi:10.1101/2025.09.09.675128.
Results are given in words; binding and its absence hold for the method and conditions named. In cells and extracts the contact can be indirect. These calls come from enrichment with a bait or labelling near it, and not all partners need be listed.

Sequences of proteins named here, by UniProt entry; tags and fusion partners are left off. A change or cut given only in a name is not applied to a line headed by its entry.
UniProt P09391: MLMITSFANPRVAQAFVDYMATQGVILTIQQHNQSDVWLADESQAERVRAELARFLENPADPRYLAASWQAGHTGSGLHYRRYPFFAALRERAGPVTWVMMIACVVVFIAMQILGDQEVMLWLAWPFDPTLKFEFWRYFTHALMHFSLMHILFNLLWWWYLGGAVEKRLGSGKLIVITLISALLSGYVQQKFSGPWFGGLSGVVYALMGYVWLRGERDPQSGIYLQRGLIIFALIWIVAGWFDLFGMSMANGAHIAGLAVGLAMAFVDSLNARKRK
UniProt P10408: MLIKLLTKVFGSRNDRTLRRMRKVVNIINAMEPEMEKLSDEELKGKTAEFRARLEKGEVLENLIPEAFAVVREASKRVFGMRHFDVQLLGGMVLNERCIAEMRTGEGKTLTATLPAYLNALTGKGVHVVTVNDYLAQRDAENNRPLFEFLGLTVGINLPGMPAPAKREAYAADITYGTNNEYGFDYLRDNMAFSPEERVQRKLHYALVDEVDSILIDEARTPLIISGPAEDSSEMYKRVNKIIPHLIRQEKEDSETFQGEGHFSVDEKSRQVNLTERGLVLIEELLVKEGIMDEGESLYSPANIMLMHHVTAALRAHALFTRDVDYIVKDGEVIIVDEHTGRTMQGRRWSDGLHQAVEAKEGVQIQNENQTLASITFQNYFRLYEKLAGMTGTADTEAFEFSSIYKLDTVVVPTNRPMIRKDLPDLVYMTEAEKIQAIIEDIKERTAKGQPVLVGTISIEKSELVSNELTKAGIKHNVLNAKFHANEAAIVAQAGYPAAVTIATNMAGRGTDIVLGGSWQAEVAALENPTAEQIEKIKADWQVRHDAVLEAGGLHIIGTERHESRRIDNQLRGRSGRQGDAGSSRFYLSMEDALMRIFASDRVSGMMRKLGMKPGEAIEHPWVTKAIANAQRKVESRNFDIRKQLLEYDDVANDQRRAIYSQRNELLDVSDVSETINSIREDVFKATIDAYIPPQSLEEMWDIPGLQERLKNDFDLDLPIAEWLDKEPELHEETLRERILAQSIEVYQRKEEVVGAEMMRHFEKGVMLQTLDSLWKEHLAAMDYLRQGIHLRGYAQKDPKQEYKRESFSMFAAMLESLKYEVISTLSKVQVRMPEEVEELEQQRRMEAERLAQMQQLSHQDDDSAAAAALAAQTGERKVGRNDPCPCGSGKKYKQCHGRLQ
UniProt P0AG99: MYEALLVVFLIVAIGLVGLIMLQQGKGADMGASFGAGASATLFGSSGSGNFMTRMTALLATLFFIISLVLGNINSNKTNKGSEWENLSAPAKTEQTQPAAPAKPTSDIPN
UniProt P0AGA2: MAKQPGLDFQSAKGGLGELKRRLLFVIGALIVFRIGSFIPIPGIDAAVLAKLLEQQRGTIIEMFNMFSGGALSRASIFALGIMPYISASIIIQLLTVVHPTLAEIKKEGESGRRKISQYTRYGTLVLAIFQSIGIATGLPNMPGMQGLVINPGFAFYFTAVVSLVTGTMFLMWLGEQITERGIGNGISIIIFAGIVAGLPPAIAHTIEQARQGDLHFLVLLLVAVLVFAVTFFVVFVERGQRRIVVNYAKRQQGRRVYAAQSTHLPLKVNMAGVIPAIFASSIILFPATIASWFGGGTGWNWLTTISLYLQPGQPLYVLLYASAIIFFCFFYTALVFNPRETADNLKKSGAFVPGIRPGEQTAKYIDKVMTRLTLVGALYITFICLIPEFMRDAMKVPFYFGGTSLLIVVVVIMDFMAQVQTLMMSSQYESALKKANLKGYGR

B1: YidC (protein, UniProt P25714 1-548)
chain: MDSQRNLLVIALLFVSFMIWQAWEQDKNPQPQAQQTTQTTTTAAGSAADQGVPASGQGKLISVKTDVLDLTINTRGGDVEQALLPAYPKELNSTQPFQLLETSPQFIYQAQSGLTGRDGPDNPANGPRPLYNVEKDAYVLAEGQNELQVPMTYTDAAGNTFTKTFVLKRGDYAVNVNYNVQNAGEKPLEISSFGQLKQSITLPPHLDTGSSNFALHTFRGAAYSTPDEKYEKYKFDTIADNENLNISSKGGWVAMLQQYFATAWIPHNDGTNNFYTANLGNGIAAIGYKSQPVLVQPGQTGAMNSTLWVGPEIQDKMAAVAPHLDLTVDYGWLWFISQPLFKLLKWIHSFVGNWGFSIIIITFIVRGIMYPLTKAQYTSMAKMRMLQPKIQAMRERLGDDKQRISQEMMALYKAEKVNPLGGCFPLLIQMPIFLALYYMLMGSVELRQAPFALWIHDLSAQDPYYILPILMGVTMFFIQKMSPTTVTDPMQQKIMTFMPVIFTVFFLWFPSGLVLYYIVSNLVTIIQQQLIYRGLEKRGLHSREKKKS
B2: periplasmic serine endoprotease DegQ (enzyme, UniProt P39099 28-455)
chain: SIPGQVADQAPLPSLAPMLEKVLPAVVSVRVEGTASQGQKIPEEFKKFFGDDLPDQPAQPFEGLGSGVIINASKGYVLTNNHVINQAQKISIQLNDGREFDAKLIGSDDQSDIALLQIQNPSKLTQIAIADSDKLRVGDFAVAVGNPFGLGQTATSGIVSALGRSGLNLEGLENFIQTDASINRGNSGGALLNLNGELIGINTAILAPGGGSVGIGFAIPSNMARTLAQQLIDFGEIKRGLLGIKGTEMSADIAKAFNLDVQRGAFVSEVLPGSGSAKAGVKAGDIITSLNGKPLNSFAELRSRIATTEPGTKVKLGLLRNGKPLEVEVTLDTSTSSSASAEMITPALEGATLSDGQLKDGGKGIKIDEVVKGSPAAQAGLQKDDVIIGVNRDRVNSIAEMRKVLAAKPAIIALQIVRGNESIYLLMR
B3: periplasmic serine endoprotease DegP (enzyme, UniProt P0C0V0 27-474)
chain: AETSSATTAQQMPSLAPMLEKVMPSVVSINVEGSTTVNTPRMPRNFQQFFGDDSPFCQEGSPFQSSPFCQGGQGGNGGGQQQKFMALGSGVIIDADKGYVVTNNHVVDNATVIKVQLSDGRKFDAKMVGKDPRSDIALIQIQNPKNLTAIKMADSDALRVGDYTVAIGNPFGLGETVTSGIVSALGRSGLNAENYENFIQTDAAINRGNSGGALVNLNGELIGINTAILAPDGGNIGIGFAIPSNMVKNLTSQMVEYGQVKRGELGIMGTELNSELAKAMKVDAQRGAFVSQVLPNSSAAKAGIKAGDVITSLNGKPISSFAALRAQVGTMPVGSKLTLGLLRDGKQVNVNLELQQSSQNQVDSSSIFNGIEGAEMSNKGKDQGVVVNNVKTGTPAAQIGLKKGDVIIGANQQAVKNIAELRKVLDSKPSVLALNIQRGDSTIYLLMQ
B4: SecD (protein, UniProt P0AG90 1-615)
chain: MLNRYPLWKYVMLIVVIVIGLLYALPNLFGEDPAVQITGARGVAASEQTLIQVQKTLQEEKITAKSVALEEGAILARFDSTDTQLRAREALMGVMGDKYVVALNLAPATPRWLAAIHAEPMKLGLDLRGGVHFLMEVDMDTALGKLQEQNIDSLRSDLREKGIPYTTVRKENNYGLSITFRDAKARDEAIAYLSKRHPDLVISSQGSNQLRAVMSDARLSEAREYAVQQNINILRNRVNQLGVAEPVVQRQGADRIVVELPGIQDTARAKEILGATATLEFRLVNTNVDQAAAASGRVPGDSEVKQTREGQPVVLYKRVILTGDHITDSTSSQDEYNQPQVNISLDSAGGNIMSNFTKDNIGKPMATLFVEYKDSGKKDANGRAVLVKQEEVINIANIQSRLGNSFRITGINNPNEARQLSLLLRAGALIAPIQIVEERTIGPTLGMQNIEQGLEACLAGLLVSILFMIIFYKKFGLIATSALIANLILIVGIMSLLPGATLSMPGIAGIVLTLAVAVDANVLINERIKEELSNGRTVQQAIDEGYRGAFSSIFDANITTLIKVIILYAVGTGAIKGFAITTGIGVATSMFTAIVGTRAIVNLLYGGKRVKKLSI
B5: SecF (protein, UniProt P0AG93 1-323)
chain: MAQEYTVEQLNHGRKVYDFMRWDYWAFGISGLLLIAAIVIMGVRGFNWGLDFTGGTVIEITLEKPAEIDVMRDALQKAGFEEPMLQNFGSSHDIMVRMPPAEGETGGQVLGSQVLKVINESTNQNAAVKRIEFVGPSVGADLAQTGAMALMAALLSILVYVGFRFEWRLAAGVVIALAHDVIITLGILSLFHIEIDLTIVASLMSVIGYSLNDSIVVSDRIRENFRKIRRGTPYEIFNVSLTQTLHRTLITSGTTLMVILMLYLFGGPVLEGFSLTMLIGVSIGTASSIYVASALALKLGMKREHMLQQKVEKEGADQPSILP

molecular target: E. coli rhomboid protease GlpG, genomically tagged with 3X FLAG (E. coli) (UniProt P09391); experiment: affinity purification with mass spectrometry

binding, binds:
ATP-dependent motor protein SecA (from UniProt P10408 1-901)
SecG of the SecYEG translocon (from UniProt P0AG99 1-110)
SecY of the SecYEG translocon (from UniProt P0AGA2 1-443)
B1
B2
B3
B4
B5
